Source: paper PMC6756063, “TRiC/CCT chaperonins are essential for organ growth by interacting with insulin/TOR signaling in Drosophila” (Oncogene, 2019)
No constants are given. Whether binding was seen depends on the method and setting. For some of these results: In cells and extracts the contact can be indirect. Some entries that bind do so weakly or less than the wild type. For some of these results: Where a sequence is shown, tags or fusion partners need not be part of it. Blank lines part the entries; values can stand above or below the molecule they belong to.

Amino acid sequences for entries named in this document (tags omitted). A change or cut given only in a name is not applied to a line headed by its entry.
UniProt P12613: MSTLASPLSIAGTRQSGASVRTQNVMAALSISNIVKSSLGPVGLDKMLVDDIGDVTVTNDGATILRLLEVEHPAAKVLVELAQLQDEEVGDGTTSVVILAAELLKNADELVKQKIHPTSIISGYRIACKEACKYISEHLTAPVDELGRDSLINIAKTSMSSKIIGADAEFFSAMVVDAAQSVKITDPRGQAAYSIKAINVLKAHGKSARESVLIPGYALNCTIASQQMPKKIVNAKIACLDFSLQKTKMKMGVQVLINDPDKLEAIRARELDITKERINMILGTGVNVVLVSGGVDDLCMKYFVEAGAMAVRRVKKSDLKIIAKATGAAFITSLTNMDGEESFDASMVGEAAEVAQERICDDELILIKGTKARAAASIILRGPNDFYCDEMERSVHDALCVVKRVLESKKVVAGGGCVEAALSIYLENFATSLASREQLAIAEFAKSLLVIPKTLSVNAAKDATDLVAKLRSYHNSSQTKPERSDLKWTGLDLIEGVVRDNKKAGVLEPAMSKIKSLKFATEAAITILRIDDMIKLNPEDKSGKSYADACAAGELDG
UniProt Q9VK45: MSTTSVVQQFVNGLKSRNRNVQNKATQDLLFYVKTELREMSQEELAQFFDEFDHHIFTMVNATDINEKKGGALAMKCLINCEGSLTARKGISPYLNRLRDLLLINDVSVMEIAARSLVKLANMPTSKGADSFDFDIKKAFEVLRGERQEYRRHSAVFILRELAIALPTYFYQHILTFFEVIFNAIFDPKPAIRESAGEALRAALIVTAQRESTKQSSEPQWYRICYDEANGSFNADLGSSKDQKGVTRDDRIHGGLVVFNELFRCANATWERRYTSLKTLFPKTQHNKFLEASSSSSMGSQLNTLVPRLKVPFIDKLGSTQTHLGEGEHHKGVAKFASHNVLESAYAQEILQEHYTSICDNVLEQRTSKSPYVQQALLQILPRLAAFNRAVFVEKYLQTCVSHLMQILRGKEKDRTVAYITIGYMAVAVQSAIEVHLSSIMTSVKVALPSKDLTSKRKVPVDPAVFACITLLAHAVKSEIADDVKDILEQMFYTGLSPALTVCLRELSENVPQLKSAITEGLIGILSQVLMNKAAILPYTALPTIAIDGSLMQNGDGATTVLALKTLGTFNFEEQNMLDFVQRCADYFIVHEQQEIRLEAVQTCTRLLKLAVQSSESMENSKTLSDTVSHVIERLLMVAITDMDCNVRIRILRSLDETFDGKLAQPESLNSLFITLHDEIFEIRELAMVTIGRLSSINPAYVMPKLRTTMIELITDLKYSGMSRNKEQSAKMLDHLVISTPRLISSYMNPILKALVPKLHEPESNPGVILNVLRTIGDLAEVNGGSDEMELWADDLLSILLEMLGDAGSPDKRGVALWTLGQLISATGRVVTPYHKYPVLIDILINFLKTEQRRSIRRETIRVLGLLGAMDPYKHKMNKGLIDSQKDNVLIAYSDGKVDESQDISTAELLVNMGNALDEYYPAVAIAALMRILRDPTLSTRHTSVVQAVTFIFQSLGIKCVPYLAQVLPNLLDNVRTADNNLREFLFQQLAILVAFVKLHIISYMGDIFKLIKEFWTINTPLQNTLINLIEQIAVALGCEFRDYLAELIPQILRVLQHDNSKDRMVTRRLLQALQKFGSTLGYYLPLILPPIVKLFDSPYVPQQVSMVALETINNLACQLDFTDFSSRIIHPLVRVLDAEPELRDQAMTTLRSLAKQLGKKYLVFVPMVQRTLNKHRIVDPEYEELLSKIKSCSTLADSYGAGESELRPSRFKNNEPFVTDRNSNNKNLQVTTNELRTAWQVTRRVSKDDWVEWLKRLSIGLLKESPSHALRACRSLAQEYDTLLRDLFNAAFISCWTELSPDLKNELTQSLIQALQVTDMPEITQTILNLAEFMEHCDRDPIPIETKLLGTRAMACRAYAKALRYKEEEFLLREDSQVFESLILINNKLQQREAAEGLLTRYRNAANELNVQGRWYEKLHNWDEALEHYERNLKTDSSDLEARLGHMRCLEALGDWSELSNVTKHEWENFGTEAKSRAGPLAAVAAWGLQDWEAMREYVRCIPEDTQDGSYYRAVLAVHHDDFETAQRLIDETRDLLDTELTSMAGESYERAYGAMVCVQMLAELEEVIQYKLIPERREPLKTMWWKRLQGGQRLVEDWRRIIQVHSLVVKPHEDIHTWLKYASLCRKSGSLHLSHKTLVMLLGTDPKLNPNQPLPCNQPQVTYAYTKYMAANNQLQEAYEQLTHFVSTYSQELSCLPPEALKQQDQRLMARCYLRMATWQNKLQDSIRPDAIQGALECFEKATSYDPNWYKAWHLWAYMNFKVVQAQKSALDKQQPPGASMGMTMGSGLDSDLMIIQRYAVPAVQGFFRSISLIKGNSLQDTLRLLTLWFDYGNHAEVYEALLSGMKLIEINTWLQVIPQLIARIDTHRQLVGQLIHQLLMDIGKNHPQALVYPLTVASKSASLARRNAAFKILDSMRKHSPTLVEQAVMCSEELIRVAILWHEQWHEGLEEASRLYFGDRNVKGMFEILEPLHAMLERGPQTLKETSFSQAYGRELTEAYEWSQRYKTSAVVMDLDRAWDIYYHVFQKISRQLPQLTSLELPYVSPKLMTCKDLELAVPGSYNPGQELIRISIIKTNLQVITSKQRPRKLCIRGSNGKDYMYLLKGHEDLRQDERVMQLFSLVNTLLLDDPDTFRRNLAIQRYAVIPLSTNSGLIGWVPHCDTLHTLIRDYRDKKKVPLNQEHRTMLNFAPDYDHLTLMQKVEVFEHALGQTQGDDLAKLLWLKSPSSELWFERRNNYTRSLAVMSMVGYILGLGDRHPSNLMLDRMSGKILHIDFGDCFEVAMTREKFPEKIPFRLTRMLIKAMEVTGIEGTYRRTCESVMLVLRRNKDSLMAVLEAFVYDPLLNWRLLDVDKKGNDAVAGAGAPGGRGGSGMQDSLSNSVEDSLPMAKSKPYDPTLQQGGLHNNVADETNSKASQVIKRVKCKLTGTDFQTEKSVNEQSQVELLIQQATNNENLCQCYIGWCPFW

Columns and labels:
[1] = molecular target: T1, endogenous CCT4 (adult fly extracts) (Drosophila (endogenous in adult flies)) (UniProt Q9VK69); assay: co-IP; endogenous proteins in adult fly extracts; 1 mg lysate in IP buffer (20 mM HEPES pH 7.4, 80 mM KCl, 0.2% NP-40), antibody overnight at 4 °C, Protein A beads
T1 sequence: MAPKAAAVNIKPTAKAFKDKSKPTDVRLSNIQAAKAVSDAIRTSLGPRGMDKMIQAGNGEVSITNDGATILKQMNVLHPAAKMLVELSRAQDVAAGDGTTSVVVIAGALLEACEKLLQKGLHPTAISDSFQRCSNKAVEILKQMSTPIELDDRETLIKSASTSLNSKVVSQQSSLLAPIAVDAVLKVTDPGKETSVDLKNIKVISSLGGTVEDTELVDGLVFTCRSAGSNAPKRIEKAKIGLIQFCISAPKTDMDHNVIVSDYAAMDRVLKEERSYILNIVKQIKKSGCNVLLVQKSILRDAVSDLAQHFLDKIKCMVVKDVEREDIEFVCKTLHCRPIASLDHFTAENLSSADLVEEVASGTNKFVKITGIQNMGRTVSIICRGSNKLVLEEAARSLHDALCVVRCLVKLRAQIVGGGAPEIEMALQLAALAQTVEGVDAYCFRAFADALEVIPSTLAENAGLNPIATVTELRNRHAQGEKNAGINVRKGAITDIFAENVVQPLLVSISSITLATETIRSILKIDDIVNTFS

[2] = molecular target: T2, endogenous CCT4 (S2R+ cell lysates) (Drosophila (endogenous in S2R+)) (UniProt Q9VK69); assay: co-IP; endogenous proteins in S2R+ cell extracts; 1 mg lysate in IP buffer (20 mM HEPES pH 7.4, 80 mM KCl, 0.2% NP-40), antibody overnight at 4 °C, Protein A beads
T2 sequence: T1 sequence

[3] = molecular target: T3, MBP-Rheb^Δ49–63 (Drosophila) (UniProt Q9VND8); assay: pull-down; MBP-pulldown of MBP-tagged bait with GST-CCT4; pulldown buffer 20 mM Tris pH 7.5, 150 mM NaCl, 0.5 mM EDTA, 10% glycerol, 0.1% Triton X-100, 1 mM DTT; blots with anti-MBP and anti-GST; both purified
T3 sequence: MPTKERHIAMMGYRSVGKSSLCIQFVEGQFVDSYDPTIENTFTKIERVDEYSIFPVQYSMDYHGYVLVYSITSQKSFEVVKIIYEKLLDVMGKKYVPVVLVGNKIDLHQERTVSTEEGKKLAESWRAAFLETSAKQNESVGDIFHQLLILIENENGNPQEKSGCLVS

[4] = molecular target: T4, MBP-Rheb^1–48 (Drosophila) (UniProt Q9VND8); assay: as above
T4 sequence: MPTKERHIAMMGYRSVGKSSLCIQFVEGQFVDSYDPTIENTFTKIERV

Myc-CCT4 (Drosophila) = molecular target: T5, Myc-CCT4 (Drosophila) (UniProt Q9VK69); assay: co-IP; extracts of S2 cells transfected with Myc-CCT4 and Rheb-V5; 1 mg lysate in IP buffer (20 mM HEPES pH 7.4, 80 mM KCl, 0.2% NP-40), antibody overnight at 4 °C, Protein A beads
T5 sequence: T1 sequence

[5] = molecular target: endogenous CCT1 (adult fly extracts) (Drosophila (endogenous in adult flies)) (UniProt P12613); assay: co-IP; endogenous proteins in adult fly extracts; 1 mg lysate in IP buffer (20 mM HEPES pH 7.4, 80 mM KCl, 0.2% NP-40), antibody overnight at 4 °C, Protein A beads

B1: GST-CCT4 (protein, UniProt Q9VK69 1-533)
chain: T1 sequence
binding [3]: binds weakly | binding [4]: binds weakly

B2: Rheb-V5 (protein, UniProt Q9VND8 1-182)
chain: MPTKERHIAMMGYRSVGKSSLCIQFVEGQFVDSYDPTIENTFTKIERVKSQDYIVKLIDTAGQDEYSIFPVQYSMDYHGYVLVYSITSQKSFEVVKIIYEKLLDVMGKKYVPVVLVGNKIDLHQERTVSTEEGKKLAESWRAAFLETSAKQNESVGDIFHQLLILIENENGNPQEKSGCLVS
binding (Myc-CCT4 (Drosophila)): binds

B3: endogenous Rheb (adult fly extracts) (protein, UniProt Q9VND8 1-182)
chain: B2 chain
binding [5]: binds | binding [1]: binds

Further lines, results first:

binding [1]: binds
Molecule: endogenous TOR (adult fly extracts) (from UniProt Q9VK45 1-2470)

binding [2]: binds
Molecule: endogenous TOR (S2R+ cell lysates) (from UniProt Q9VK45 1-2470)
